Reference: patent US20180273632A1 (BIOCEROX PRODUCTS B V, published 2018)
Results are given in words; binding and its absence hold for the method and conditions named. Some binding calls cover weakened binding; strength is not graded here. Blank lines part the entries; values can stand above or below the binder they belong to.

Chains of the proteins cited; added tags and fusions are not shown. Lines headed by an entry give the natural chain unless they say otherwise; changes in a name come on top.
UniProt P43489: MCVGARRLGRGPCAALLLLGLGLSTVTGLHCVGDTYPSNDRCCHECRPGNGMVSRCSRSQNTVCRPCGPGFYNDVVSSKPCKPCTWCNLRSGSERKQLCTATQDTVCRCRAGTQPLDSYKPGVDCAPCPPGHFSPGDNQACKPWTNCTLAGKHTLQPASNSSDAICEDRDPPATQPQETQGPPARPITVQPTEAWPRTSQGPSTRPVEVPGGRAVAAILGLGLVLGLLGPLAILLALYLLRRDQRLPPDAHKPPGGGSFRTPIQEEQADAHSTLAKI

Legend:
[1] = molecular target: T1, recombinant human CD134:human Fcγ (IgG1) fusion protein (R&D Systems) (human) (UniProt P43489+P01857); assay: western blot, 250 ng/lane CD134:Fcγ fusion protein under conditions a-d of Figure 19A, 100 ng/mL antibody, HRP goat anti-mouse Fcγ
[2] = molecular target: T1, recombinant human CD134:human Fcγ (IgG1) fusion protein (R&D Systems) (human); assay: Western blot, reducing conditions, 100 ng/mL antibody
[3] = molecular target: T1, recombinant human CD134:human Fcγ (IgG1) fusion protein (R&D Systems) (human); assay: Western blot of CD134:Fcγ fusion protein
[4] = molecular target: T1, recombinant human CD134:human Fcγ (IgG1) fusion protein (R&D Systems) (human); assay: Western blot, non-reducing conditions, 100 ng/mL antibody

binding [1]: binds | binding [2]: binds | binding [3]: binds | binding [4]: binds
B1: mouse anti-human CD134 monoclonal antibody clone 20E5 (antibody, mouse IgG1, V domains shown)
VH: EVQLQQSGPELVKPGASVKMSCKASGYTFTSYVMHWVKQKPGQGLEWIGYINPYNDGTKYNEKFKGKATLTSDKSSSTAYMELSSLTSEDSAVYYCANYYGSSLSMDYWGQGTSVTVSS
VL: DIQMTQTTSSLSASLGDRVTISCRASQDISNYLNWYQQKPDGTVKLLIYYTSRLHSGVPSRFSGSGSGTDYSLTISNLEQEDIATYFCQQGNTLPWTFGGGTKLEIKR
notes: also called m20E5

binding [1]: binds | binding [2]: binds | binding [3]: binds | binding [4]: binds
B2: mouse anti-human CD134 monoclonal antibody clone 12H3 (antibody, mouse IgG1, V domains shown)
VH: EVQLQQSGPELVKPGASVKISCKTSGYTFKDYTMHWVKQSHGKSLEWIGGIYPNNGGSTYNQNFKDKATLTVDKSSSTAYMEFRSLTSEDSAVYYCARMGYHGPHLDFDVWGAGTTVTVSP
VL: DIVMTQSHKFMSTSLGDRVSITCKASQDVGAAVAWYQQKPGQSPKLLIYWASTRHTGVPDRFTGGGSGTDFTLTISNVQSEDLTDYFCQQYINYPLTFGGGTKLEIKR
notes: also called m12H3
